# Measured values from paper PMC8536140.
# By UniProt entry, the sequences of proteins in these tests, tags left out. Residues count along the entry.
# UniProt P41586, residues 21-468: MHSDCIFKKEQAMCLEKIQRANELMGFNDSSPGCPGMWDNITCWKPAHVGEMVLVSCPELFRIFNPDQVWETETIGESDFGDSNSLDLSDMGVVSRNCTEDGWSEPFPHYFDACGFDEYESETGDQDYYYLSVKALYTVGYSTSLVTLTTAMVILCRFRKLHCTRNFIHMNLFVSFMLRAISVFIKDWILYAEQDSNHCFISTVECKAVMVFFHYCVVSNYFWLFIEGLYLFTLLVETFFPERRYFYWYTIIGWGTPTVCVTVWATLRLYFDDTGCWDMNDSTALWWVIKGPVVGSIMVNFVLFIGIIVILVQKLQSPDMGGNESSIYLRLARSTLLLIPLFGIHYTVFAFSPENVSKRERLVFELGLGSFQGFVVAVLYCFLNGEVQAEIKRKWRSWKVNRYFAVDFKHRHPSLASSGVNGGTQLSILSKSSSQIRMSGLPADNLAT
# UniProt P16403: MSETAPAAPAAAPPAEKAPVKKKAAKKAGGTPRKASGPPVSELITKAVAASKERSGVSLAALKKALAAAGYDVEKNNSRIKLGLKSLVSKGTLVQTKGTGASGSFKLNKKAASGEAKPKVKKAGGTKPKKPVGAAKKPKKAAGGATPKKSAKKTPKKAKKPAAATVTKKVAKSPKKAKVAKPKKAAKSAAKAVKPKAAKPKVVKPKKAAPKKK
# UniProt P20700: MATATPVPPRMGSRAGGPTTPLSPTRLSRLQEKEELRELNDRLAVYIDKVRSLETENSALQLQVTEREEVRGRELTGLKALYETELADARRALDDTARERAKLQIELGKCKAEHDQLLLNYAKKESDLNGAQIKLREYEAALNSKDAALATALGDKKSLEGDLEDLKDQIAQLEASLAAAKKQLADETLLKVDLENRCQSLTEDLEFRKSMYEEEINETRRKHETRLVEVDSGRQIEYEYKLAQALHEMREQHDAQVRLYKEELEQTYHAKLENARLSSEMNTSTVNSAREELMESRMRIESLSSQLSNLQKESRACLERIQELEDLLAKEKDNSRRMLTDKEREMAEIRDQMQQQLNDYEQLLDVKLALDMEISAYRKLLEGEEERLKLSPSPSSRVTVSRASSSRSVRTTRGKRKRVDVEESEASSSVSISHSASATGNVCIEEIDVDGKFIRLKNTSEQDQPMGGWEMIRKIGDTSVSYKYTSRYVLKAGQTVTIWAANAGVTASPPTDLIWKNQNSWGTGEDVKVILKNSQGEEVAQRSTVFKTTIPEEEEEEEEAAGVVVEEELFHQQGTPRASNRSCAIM
# UniProt P04264: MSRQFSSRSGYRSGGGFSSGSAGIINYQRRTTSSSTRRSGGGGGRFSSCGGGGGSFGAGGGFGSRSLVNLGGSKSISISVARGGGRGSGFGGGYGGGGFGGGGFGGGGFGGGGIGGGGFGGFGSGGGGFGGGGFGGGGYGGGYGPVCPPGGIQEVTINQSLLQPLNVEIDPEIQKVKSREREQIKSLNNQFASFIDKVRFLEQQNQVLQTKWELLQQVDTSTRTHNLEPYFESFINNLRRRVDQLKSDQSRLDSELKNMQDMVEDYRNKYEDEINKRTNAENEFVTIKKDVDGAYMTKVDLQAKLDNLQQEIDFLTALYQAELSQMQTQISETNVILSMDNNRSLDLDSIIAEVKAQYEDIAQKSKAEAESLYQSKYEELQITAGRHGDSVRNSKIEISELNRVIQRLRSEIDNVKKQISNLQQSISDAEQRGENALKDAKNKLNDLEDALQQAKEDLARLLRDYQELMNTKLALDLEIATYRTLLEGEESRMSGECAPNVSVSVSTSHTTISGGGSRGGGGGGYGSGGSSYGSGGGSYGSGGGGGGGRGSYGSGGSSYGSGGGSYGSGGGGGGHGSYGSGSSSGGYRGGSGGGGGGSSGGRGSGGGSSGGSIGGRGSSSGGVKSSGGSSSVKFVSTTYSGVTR
# UniProt P26641: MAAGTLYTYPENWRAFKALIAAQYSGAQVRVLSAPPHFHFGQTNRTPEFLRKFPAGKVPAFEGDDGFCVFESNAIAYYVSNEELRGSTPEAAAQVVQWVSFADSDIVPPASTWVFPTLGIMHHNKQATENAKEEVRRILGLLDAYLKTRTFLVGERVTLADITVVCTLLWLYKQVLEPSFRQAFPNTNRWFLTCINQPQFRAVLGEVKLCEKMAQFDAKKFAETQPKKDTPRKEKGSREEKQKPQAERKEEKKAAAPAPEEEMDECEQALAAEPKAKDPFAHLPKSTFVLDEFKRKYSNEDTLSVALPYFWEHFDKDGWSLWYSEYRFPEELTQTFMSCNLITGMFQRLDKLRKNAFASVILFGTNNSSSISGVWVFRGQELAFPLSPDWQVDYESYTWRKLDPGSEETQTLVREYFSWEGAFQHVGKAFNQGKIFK
# T1: Flag-TSC-22 (full-length human TSC-22 (TSC22D1-2) fused with Flag) (human) (UniProt Q15714)
# T1 sequence: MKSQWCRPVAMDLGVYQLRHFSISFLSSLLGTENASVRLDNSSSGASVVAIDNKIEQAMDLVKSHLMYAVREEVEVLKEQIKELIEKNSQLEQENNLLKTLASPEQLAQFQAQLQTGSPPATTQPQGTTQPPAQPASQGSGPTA
# T2: GST-TSC-22 (glutathione S-transferase fused to full-length human TSC-22 (TSC22D1-2)) (human) (UniProt Q15714)
# T2 sequence: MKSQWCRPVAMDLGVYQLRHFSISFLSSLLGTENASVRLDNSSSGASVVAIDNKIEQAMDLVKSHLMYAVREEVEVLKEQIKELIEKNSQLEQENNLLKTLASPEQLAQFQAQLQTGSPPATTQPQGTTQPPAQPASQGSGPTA
# Target: T1, Flag-TSC-22 (full-length human TSC-22 (TSC22D1-2) fused with Flag) (human)
# Test: affinity purification with mass spectrometry; anti-FLAG M2-Agarose precipitation of Flag-TSC-22 from the nuclear fraction of Flp-In T-REx 293 cells, with or without 0.5 mM phleomycin for 12 h (binding proteins found after DNA damage); washed with 50 mM HEPES pH 7.5, 150 mM NaCl, 0.1% NP-40; SDS-PAGE, silver stain, bands cut out for MS
row,Molecule,binding
1,Pituitary adenylate cyclase-activating polypeptide type I receptor (from UniProt P41586 21-468),binds
2,Histone H1.2 (from UniProt P16403 1-213),binds
3,Lamin-B1 (from UniProt P20700 1-586),binds
4,"rRNA 2′-O-methyltransferase fibrillarin (enzyme, UniProt P22087 1-321) MKPGFSPRGGGFGGRGGFGDRGGRGGRGGFGGGRGRGGGFRGRGRGGGGGGGGGGGGGRGGGGFHSGGNRGRGRGGKRGNQSGKNVMVEPHRHEGVFICRGKEDALVTKNLVPGESVYGEKRVSISEGDDKIEYRAWNPFRSKLAAAILGGVDQIHIKPGAKVLYLGAASGTTVSHVSDIVGPDGLVYAVEFSHRSGRDLINLAKKRTNIIPVIEDARHPHKYRMLIAMVDVIFADVAQPDQTRIVALNAHTFLRNGGHFVISIKANCIDSTASAEAVFASEVKKMQQENMKPQEQLTLEPYERDHAVVVGVYRPPPKVKN",binds
5,"Charged multivesicular body protein 4a (protein, UniProt Q9BY43 1-222) MSGLGRLFGKGKKEKGPTPEEAIQKLKETEKILIKKQEFLEQKIQQELQTAKKYGTKNKRAALQALRRKKRFEQQLAQTDGTLSTLEFQREAIENATTNAEVLRTMELAAQSMKKAYQDMDIDKVDELMTDITEQQEVAQQISDAISRPMGFGDDVDEDELLEELEELEQEELAQELLNVGDKEEEPSVKLPSVPSTHLPAGPAPKVDEDEEALKQLAEWVS",binds

# Target: T2, GST-TSC-22 (glutathione S-transferase fused to full-length human TSC-22 (TSC22D1-2)) (human)
# Test: affinity purification with mass spectrometry; GST-TSC-22 on Glutathione Sepharose 4B beads incubated with TYS whole cell extract at 4 °C for 6-12 h; washed with 50 mM HEPES pH 7.2, 150 mM NaCl, 0.2% NP-40; eluted with 1.2 M NaCl; SDS-PAGE, silver stain, bands cut out for nanoLC/MS/MS; only the target purified
row,binding,Molecule
1,binds,"Keratin, type II cytoskeletal 1 (from TYS cells) (from UniProt P04264 1-644)"
2,binds,"Carbonyl reductase [NADPH] 1 (enzyme, UniProt P16152 1-277) MSSGIHVALVTGGNKGIGLAIVRDLCRLFSGDVVLTARDVTRGQAAVQQLQAEGLSPRFHQLDIDDLQSIRALRDFLRKEYGGLDVLVNNAGIAFKVADPTPFHIQAEVTMKTNFFGTRDVCTELLPLIKPQGRVVNVSSIMSVRALKSCSPELQQKFRSETITEEELVGLMNKFVEDTKKGVHQKEGWPSSAYGVTKIGVTVLSRIHARKLSEQRKGDKILLNACCPGWVRTDMAGPKATKSPEEGAETPVYLALLPPDAEGPHGQFVSEKRVEQW"

# Second part, the molecule before the results:
row,Molecule,binding
1,Elongation factor 1-gamma (from UniProt P26641 1-437),binds
2,"Rho-related GTP-binding protein Rho6 (protein, UniProt Q92730 1-232) MKERRAPQPVVARCKLVLVGDVQCGKTAMLQVLAKDCYPETYVPTVFENYTACLETEEQRVELSLWDTSGSPYYDNVRPLCYSDSDAVLLCFDISRPETVDSALKKWRTEILDYCPSTRVLLIGCKTDLRTDLSTLMELSHQKQAPISYEQGCAIAKQLGAEIYLEGSAFTSEKSIHSIFRTASMLCLNKPSPLPQKSPVRSLSKRLLHLPSRSELISSTFKKEKAKSCSIM",binds
3,"Pleckstrin homology domain-containing family G member 2 (protein, UniProt Q9H7P9 1-1386) MPEGAQGLSLSKPSPSLGCGRRGEVCDCGTVCETRTAPAAPTMASPRGSGSSTSLSTVGSEGDPAPGPTPACSASRPEPLPGPPIRLHLSPVGIPGSARPSRLERVAREIVETERAYVRDLRSIVEDYLGPLLDGGVLGLSVEQVGTLFANIEDIYEFSSELLEDLENSSSAGGIAECFVQRSEDFDIYTLYCMNYPSSLALLRELSLSPPAALWLQERQAQLRHSLPLQSFLLKPVQRILKYHLLLQELGKHWAEGPGTGGREMVEEAIVSMTAVAWYINDMKRKQEHAARLQEVQRRLGGWTGPELSAFGELVLEGAFRGGGGGGPRLRGGERLLFLFSRMLLVAKRRGLEYTYKGHIFCCNLSVSESPRDPLGFKVSDLTIPKHRHLLQAKNQEEKRLWIHCLQRLFFENHPASIPAKAKQVLLENSLHCAPKSKPVLEPLTPPLGSPRPRDARSFTPGRRNTAPSPGPSVIRRGRRQSEPVKDPYVMFPQNAKPGFKHAGSEGELYPPESQPPVSGSAPPEDLEDAGPPTLDPSGTSITEEILELLNQRGLRDPGPSTHDIPKFPGDSQVPGDSETLTFQALPSRDSSEEEEEEEEGLEMDERGPSPLHVLEGLESSIAAEMPSIPCLTKIPDVPNLPEIPSRCEIPEGSRLPSLSDISDVFEMPCLPAIPSVPNTPSLSSTPTLSCDSWLQGPLQEPAEAPATRRELFSGSNPGKLGEPPSGGKAGPEEDEEGVSFTDFQPQDVTQHQGFPDELAFRSCSEIRSAWQALEQGQLARPGFPEPLLILEDSDLGGDSGSGKAGAPSSERTASRVRELARLYSERIQQMQRAETRASANAPRRRPRVLAQPQPSPCLPQEQAEPGLLPAFGHVLVCELAFPLTCAQESVPLGPAVWVQAAIPLSKQGGSPDGQGLHVSNLPKQDLPGIHVSAATLLPEQGGSRHVQAPAATPLPKQEGPLHLQVPALTTFSDQGHPEIQVPATTPLPEHRSHMVIPAPSTAFCPEQGHCADIHVPTTPALPKEICSDFTVSVTTPVPKQEGHLDSESPTNIPLTKQGGSRDVQGPDPVCSQPIQPLSWHGSSLDPQGPGDTLPPLPCHLPDLQIPGTSPLPAHGSHLDHRIPANAPLSLSQELPDTQVPATTPLPLPQVLTDIWVQALPTSPKQGSLPDIQGPAAAPPLPEPSLTDTQVQKLTPSLEQKSLIDAHVPAATPLPERGGSLDIQGLSPTPVQTTMVLSKPGGSLASHVARLESSDLTPPHSPPPSSRQLLGPNAAALSRYLAASYISQSLARRQGPGGGAPAASRGSWSSAPTSRASSPPPQPQPPPPPARRLSYATTVNIHVGGGGRLRPAKAQVRLNHPALLASTQESMGLHRAQGAPDAPFHM",binds

# Target: Flag-TSC22(86) (TSC22D1-3 fused with Flag) (human)
# Test: affinity purification with mass spectrometry; anti-FLAG M2-Agarose precipitation of Flag-TSC22(86) from whole cell extract of Flp-In T-REx 293 cells after 0.5 mM phleomycin for 12 h; washed with 50 mM HEPES pH 7.5, 150 mM NaCl, 0.1% NP-40; SDS-PAGE, silver stain, bands cut out for MS
row,binding,Molecule
1,binds,"Ubiquitin carboxyl-terminal hydrolase 47 (enzyme, UniProt Q96K76 1-1375) MVPGEENQLVPKEDVFWRCRQNIFDEMKKKFLQIENAAEEPRVLCIIQDTTNSKTVNERITLNLPASTPVRKLFEDVANKVGYINGTFDLVWGNGINTADMAPLDHTSDKSLLDANFEPGKKNFLHLTDKDGEQPQILLEDSSAGEDSVHDRFIGPLPREGSGGSTSDYVSQSYSYSSILNKSETGYVGLVNQAMTCYLNSLLQTLFMTPEFRNALYKWEFEESEEDPVTSIPYQLQRLFVLLQTSKKRAIETTDVTRSFGWDSSEAWQQHDVQELCRVMFDALEQKWKQTEQADLINELYQGKLKDYVRCLECGYEGWRIDTYLDIPLVIRPYGSSQAFASVEEALHAFIQPEILDGPNQYFCERCKKKCDARKGLRFLHFPYLLTLQLKRFDFDYTTMHRIKLNDRMTFPEELDMSTFIDVEDEKSPQTESCTDSGAENEGSCHSDQMSNDFSNDDGVDEGICLETNSGTEKISKSGLEKNSLIYELFSVMVHSGSAAGGHYYACIKSFSDEQWYSFNDQHVSRITQEDIKKTHGGSSGSRGYYSSAFASSTNAYMLIYRLKDPARNAKFLEVDEYPEHIKNLVQKERELEEQEKRQREIERNTCKIKLFCLHPTKQVMMENKLEVHKDKTLKEAVEMAYKMMDLEEVIPLDCCRLVKYDEFHDYLERSYEGEEDTPMGLLLGGVKSTYMFDLLLETRKPDQVFQSYKPGEVMVKVHVVDLKAESVAAPITVRAYLNQTVTEFKQLISKAIHLPAETMRIVLERCYNDLRLLSVSSKTLKAEGFFRSNKVFVESSETLDYQMAFADSHLWKLLDRHANTIRLFVLLPEQSPVSYSKRTAYQKAGGDSGNVDDDCERVKGPVGSLKSVEAILEESTEKLKSLSLQQQQDGDNGDSSKSTETSDFENIESPLNERDSSASVDNRELEQHIQTSDPENFQSEERSDSDVNNDRSTSSVDSDILSSSHSSDTLCNADNAQIPLANGLDSHSITSSRRTKANEGKKETWDTAEEDSGTDSEYDESGKSRGEMQYMYFKAEPYAADEGSGEGHKWLMVHVDKRITLAAFKQHLEPFVGVLSSHFKVFRVYASNQEFESVRLNETLSSFSDDNKITIRLGRALKKGEYRVKVYQLLVNEQEPCKFLLDAVFAKGMTVRQSKEELIPQLREQCGLELSIDRFRLRKKTWKNPGTVFLDYHIYEEDINISSNWEVFLEVLDGVEKMKSMSQLAVLSRRWKPSEMKLDPFQEVVLESSSVDELREKLSEISGIPLDDIEFAKGRGTFPCDISVLDIHQDLDWNPKVSTLNVWPLYICDDGAVIFYRDKTEELMELTDEQRNELMKKESSRLQKTGHRVTYSPRKEKALKIYLDGAPNKDLTQD"
2,binds,"Histone H1t (protein, UniProt P22492 1-207) MSETVPAASASAGVAAMEKLPTKKRGRKPAGLISASRKVPNLSVSKLITEALSVSQERVGMSLVALKKALAAAGYDVEKNNSRIKLSLKSLVNKGILVQTRGTGASGSFKLSKKVIPKSTRSKAKKSVSAKTKKLVLSRDSKSPKTAKTNKRAKKPRATTPKTVRSGRKAKGAKGKQQQKSPVKARASKSKLTQHHEVNVRKATSKK"

# Further lines, the molecule ahead of its results:
row,Molecule,binding
1,"Dermcidin (protein, UniProt P81605 20-110) YDPEAASAPGSGNPCHEASAAQKENAGEDPGLARQAPKPRKQRSSLLEKGLDGAKKAVGGLGKLGKDAVEDLESVGKGAVHDVKDVLDSVL",binds
2,"Keratin, type I cytoskeletal 9 (protein, UniProt P35527 1-623) MSCRQFSSSYLSRSGGGGGGGLGSGGSIRSSYSRFSSSGGGGGGGRFSSSSGYGGGSSRVCGRGGGGSFGYSYGGGSGGGFSASSLGGGFGGGSRGFGGASGGGYSSSGGFGGGFGGGSGGGFGGGYGSGFGGFGGFGGGAGGGDGGILTANEKSTMQELNSRLASYLDKVQALEEANNDLENKIQDWYDKKGPAAIQKNYSPYYNTIDDLKDQIVDLTVGNNKTLLDIDNTRMTLDDFRIKFEMEQNLRQGVDADINGLRQVLDNLTMEKSDLEMQYETLQEELMALKKNHKEEMSQLTGQNSGDVNVEINVAPGKDLTKTLNDMRQEYEQLIAKNRKDIENQYETQITQIEHEVSSSGQEVQSSAKEVTQLRHGVQELEIELQSQLSKKAALEKSLEDTKNRYCGQLQMIQEQISNLEAQITDVRQEIECQNQEYSLLLSIKMRLEKEIETYHNLLEGGQEDFESSGAGKIGLGGRGGSGGSYGRGSRGGSGGSYGGGGSGGGYGGGSGSRGGSGGSYGGGSGSGGGSGGGYGGGSGGGHSGGSGGGHSGGSGGNYGGGSGSGGGSGGGYGGGSGSRGGSGGSHGGGSGFGGESGGSYGGGEEASGSGGGYGGGSGKSSHS",binds

# These are yes or no findings as the source states them, for the method shown. Binding seen in cells or lysates may run through a third protein. A yes stands for co-enrichment or nearness to the bait. Other partners may have been found. Tags and fused reporters may be left off the sequences shown.
